Results on one molecule are retold here after US12295985.

By UniProt entry, the sequences of proteins in these tests, tags left out. Residues count along the entry.
UniProt P05017, residues 49-118: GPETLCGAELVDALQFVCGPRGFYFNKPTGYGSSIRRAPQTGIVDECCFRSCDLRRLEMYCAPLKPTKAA

No constants are given. Whether binding was seen depends on the method and setting. In cells and extracts the contact can be indirect. Some binding calls cover weakened binding; strength is not graded here.

The target in this assay is mouse recombinant IGF-1 (Insulin Growth Factor 1) (mouse) (UniProt P05017). Put plainly: co-immunoprecipitation and western blot; mouse recombinant proteins (FIG. 5 (I)) and retina lysates (FIG. 5 (II)). (In general: Immunoblotting shows a protein as a band on a membrane.)

B1: mouse recombinant IGFBPL-1 (insulin-like growth factor binding protein-like 1) (protein, UniProt Q80W15 18-270, looked up)
chain: LGLRDAGRRHPECSPCQQDRCPAPSPCPAPWISARDECGCCARCLGAEGASCGGPVGSRCGPGLVCASRASGTAPEGTGLCVCAQRGAVCGSDGRSYSSICALRLRARHAPRAHHGHLHKARDGPCEFAPVVLMPPRDIHNVTGTQVFLSCEVKAVPTPVITWKKVKHSPEGTEGLEELPGDHVNIAVQVRGGPSDHETTSWILINPLRKEDEGVYHCHAANAIGEAQSHGTVTVLDLNRYKSLYSSVPGDLL
Take B1: the binding result was “binds”.
